Source: US20080102032A1
No constants are given. Whether binding was seen depends on the method and setting. In cells and extracts the contact can be indirect. Some binding calls cover weakened binding; strength is not graded here.

Sequences of proteins named here, by UniProt entry; tags and fusion partners are left off. Residues count along the entry.
UniProt P30561, residues 10-805: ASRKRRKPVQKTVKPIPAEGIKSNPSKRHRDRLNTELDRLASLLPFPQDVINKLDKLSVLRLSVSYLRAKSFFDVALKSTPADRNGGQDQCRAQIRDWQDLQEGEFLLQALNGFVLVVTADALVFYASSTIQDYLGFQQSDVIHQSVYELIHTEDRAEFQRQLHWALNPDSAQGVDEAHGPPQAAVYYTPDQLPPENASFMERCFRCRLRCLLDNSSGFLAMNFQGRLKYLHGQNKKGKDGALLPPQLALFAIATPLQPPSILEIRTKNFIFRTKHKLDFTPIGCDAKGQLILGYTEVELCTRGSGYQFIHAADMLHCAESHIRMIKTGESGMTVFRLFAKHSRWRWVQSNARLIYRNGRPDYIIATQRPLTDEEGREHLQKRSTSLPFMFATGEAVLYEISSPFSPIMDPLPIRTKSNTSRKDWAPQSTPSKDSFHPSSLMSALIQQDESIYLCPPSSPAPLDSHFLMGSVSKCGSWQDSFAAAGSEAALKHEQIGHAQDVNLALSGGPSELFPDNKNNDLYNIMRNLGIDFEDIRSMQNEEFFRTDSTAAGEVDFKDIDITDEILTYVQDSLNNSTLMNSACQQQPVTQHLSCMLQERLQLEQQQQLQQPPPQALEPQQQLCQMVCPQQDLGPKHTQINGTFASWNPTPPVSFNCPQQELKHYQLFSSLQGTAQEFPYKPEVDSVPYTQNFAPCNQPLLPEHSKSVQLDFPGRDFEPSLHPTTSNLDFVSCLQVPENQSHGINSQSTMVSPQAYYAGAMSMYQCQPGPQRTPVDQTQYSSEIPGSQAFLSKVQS
UniProt Q61221: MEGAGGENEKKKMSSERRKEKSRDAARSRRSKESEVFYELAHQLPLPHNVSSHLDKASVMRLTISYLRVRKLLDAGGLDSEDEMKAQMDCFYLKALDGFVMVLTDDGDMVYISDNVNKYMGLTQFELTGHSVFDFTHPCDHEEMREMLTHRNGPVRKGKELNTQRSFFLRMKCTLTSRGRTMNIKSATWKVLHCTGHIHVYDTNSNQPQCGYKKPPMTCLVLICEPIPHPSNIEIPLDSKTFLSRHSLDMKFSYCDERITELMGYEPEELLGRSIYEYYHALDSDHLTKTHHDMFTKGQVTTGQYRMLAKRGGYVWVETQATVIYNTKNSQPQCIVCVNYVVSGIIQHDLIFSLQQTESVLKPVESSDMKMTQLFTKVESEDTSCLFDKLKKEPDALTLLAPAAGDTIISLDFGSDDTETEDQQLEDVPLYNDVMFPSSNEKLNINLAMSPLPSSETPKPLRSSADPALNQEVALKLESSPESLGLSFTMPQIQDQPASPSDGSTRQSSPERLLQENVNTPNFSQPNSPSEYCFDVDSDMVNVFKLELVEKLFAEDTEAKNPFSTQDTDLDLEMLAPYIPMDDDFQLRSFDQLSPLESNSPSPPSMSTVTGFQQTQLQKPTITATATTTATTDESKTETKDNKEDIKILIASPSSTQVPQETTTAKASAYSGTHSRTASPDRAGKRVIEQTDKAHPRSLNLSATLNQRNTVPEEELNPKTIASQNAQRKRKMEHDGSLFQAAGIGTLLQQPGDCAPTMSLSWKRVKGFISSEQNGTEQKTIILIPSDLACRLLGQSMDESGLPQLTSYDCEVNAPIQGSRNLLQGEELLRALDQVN
UniProt P97481: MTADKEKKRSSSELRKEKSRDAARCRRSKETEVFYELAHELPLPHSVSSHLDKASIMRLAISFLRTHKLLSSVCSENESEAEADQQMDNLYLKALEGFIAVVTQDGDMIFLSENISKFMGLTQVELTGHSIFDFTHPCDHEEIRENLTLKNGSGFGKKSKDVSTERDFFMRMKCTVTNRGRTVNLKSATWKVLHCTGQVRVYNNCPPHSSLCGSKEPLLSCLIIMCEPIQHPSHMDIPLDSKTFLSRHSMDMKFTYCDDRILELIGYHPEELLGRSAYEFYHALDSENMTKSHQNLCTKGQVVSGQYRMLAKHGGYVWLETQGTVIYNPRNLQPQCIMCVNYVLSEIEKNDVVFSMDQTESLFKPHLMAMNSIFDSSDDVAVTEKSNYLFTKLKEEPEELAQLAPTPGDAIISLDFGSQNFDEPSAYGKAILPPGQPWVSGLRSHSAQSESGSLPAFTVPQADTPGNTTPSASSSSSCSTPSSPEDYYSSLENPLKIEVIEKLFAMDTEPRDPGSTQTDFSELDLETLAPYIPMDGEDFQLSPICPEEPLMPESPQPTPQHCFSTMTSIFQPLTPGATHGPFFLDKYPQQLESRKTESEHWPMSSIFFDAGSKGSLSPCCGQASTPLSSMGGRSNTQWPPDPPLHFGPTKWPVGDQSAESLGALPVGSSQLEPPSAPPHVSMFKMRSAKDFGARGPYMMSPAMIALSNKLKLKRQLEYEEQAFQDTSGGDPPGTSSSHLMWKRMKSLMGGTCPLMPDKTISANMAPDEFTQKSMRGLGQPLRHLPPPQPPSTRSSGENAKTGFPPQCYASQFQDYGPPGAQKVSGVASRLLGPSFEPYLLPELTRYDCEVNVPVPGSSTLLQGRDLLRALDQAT
UniProt P53762, residues 2-791: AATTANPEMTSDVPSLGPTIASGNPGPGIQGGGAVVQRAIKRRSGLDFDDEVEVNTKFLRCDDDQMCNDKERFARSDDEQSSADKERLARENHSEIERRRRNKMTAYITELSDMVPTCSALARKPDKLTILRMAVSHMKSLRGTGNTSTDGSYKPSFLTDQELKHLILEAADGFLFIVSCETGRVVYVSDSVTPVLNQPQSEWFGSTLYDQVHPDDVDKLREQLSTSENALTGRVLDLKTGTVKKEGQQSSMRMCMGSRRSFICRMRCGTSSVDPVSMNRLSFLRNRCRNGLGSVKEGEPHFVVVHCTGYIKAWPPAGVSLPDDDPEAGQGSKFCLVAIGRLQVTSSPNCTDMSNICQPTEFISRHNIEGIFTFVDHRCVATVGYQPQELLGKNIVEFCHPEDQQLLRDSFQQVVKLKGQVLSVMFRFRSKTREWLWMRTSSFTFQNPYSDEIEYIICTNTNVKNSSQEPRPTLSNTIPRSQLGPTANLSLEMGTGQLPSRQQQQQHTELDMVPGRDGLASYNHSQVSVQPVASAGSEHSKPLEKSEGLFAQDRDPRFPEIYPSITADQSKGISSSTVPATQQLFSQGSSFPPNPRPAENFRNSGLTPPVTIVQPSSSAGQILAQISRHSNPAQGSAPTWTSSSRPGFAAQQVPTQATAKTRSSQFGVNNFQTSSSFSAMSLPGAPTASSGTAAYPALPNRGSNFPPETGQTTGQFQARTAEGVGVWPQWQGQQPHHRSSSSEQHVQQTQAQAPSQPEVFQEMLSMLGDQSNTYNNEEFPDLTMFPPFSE
UniProt Q61324: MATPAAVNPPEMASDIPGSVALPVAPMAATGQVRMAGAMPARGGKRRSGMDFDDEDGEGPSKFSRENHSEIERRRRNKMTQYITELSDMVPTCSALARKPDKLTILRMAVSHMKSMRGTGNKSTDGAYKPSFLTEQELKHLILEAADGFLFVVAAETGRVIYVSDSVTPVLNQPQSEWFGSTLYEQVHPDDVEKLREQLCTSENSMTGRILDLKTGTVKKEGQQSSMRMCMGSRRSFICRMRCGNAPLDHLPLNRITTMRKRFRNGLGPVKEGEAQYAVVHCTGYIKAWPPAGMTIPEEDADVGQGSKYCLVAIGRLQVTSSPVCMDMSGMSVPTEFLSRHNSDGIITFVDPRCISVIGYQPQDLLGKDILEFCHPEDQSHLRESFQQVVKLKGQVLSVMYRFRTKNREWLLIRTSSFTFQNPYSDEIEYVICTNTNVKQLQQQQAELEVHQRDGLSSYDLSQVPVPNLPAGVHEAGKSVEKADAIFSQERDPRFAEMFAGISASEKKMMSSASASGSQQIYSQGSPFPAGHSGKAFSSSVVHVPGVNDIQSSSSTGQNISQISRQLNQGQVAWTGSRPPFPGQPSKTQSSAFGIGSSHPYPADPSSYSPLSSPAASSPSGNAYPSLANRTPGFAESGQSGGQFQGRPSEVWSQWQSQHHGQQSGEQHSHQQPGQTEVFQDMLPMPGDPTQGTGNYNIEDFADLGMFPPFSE

Tests used:
[1] = target: aryl hydrocarbon receptor (AhR), endogenous in Min6 cells (mouse) (UniProt P30561); test: co-immunoprecipitation from Min6 nuclear extracts, Western blot for ARNT2
[2] = target: hypoxia inducible factor (HIF)-1α, endogenous in Min6 cells (mouse) (UniProt Q61221); test: as above
[3] = target: hypoxia inducible factor (HIF)-2α, endogenous in Min6 cells (mouse) (UniProt P97481); test: as above
[4] = target: aryl hydrocarbon receptor (AhR), endogenous in Min6 cells (mouse) (UniProt P30561); test: co-immunoprecipitation from Min6 cells
[5] = target: aryl hydrocarbon receptor nuclear translocator (ARNT), endogenous in Min6 cells (mouse) (UniProt P53762); test: co-immunoprecipitation from Min6 cells
[6] = target: hypoxia inducible factor (HIF)-1α, endogenous in Min6 cells (mouse) (UniProt Q61221); test: co-immunoprecipitation from Min6 cells
[7] = target: hypoxia inducible factor (HIF)-2α, endogenous in Min6 cells (mouse) (UniProt P97481); test: co-immunoprecipitation from Min6 cells
[8] = target: aryl hydrocarbon receptor (AhR), endogenous in Min6 cells (mouse) (UniProt P30561); test: co-immunoprecipitation from Min6 cells, Western blot
[9] = target: aryl hydrocarbon receptor nuclear translocator (ARNT), endogenous in Min6 cells (mouse) (UniProt P53762); test: as above
[10] = target: hypoxia inducible factor (HIF)-1α, endogenous in Min6 cells (mouse) (UniProt Q61221); test: as above
[11] = target: hypoxia inducible factor (HIF)-2α, endogenous in Min6 cells (mouse) (UniProt P97481); test: as above

Measured: binding

aryl hydrocarbon nuclear receptor translocator 2 (ARNT2), endogenous in murine Min6 cells (from UniProt Q61324 1-712)
binds: all assays above
